Data on 23 targets can be found in the supplement of paper PMC10849652.

Amino acid sequences for entries named in this document (tags omitted). A change or cut given only in a name is not applied to a line headed by its entry.
UniProt P55145: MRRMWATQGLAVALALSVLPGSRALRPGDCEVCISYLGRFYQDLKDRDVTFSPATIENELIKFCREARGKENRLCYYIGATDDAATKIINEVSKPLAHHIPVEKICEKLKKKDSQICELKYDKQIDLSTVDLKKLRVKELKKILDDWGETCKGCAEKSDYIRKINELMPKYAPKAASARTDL
UniProt Q14244: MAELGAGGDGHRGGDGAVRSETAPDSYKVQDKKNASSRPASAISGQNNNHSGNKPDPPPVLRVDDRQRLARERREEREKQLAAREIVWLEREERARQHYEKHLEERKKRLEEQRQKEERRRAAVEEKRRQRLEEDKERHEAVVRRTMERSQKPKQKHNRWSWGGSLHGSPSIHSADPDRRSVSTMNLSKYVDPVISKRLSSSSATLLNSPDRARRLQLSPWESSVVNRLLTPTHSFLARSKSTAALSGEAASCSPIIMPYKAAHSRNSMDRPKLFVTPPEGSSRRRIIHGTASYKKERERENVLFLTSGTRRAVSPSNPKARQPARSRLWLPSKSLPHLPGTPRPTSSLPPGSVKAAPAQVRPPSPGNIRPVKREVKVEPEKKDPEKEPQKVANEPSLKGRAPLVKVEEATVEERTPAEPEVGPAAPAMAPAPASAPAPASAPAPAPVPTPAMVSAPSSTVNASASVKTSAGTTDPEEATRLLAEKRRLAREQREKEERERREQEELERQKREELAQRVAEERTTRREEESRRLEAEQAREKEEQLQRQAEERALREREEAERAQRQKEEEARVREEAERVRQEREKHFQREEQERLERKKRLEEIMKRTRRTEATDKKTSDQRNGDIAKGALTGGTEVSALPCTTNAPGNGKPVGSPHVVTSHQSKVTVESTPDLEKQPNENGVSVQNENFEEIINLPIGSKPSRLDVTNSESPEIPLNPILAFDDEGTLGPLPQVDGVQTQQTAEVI
UniProt Q9UKM7: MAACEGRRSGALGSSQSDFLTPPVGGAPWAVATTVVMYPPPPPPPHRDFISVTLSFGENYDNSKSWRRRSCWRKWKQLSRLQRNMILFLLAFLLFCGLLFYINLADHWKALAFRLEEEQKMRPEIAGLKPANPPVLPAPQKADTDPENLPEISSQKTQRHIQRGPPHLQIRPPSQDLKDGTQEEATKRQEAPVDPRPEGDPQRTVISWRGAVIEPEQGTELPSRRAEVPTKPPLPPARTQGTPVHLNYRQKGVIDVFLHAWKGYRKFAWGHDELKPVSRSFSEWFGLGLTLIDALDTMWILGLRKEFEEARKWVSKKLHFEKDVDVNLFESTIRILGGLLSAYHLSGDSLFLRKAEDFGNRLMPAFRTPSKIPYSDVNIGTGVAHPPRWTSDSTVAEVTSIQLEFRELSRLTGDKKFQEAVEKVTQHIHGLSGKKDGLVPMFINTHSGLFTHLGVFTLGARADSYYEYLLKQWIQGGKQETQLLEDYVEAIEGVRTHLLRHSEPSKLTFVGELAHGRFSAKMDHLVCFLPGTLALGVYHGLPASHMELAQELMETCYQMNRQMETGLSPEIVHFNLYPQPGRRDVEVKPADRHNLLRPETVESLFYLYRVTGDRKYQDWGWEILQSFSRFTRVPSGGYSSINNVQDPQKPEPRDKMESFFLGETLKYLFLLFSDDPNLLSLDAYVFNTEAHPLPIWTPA
UniProt Q15013: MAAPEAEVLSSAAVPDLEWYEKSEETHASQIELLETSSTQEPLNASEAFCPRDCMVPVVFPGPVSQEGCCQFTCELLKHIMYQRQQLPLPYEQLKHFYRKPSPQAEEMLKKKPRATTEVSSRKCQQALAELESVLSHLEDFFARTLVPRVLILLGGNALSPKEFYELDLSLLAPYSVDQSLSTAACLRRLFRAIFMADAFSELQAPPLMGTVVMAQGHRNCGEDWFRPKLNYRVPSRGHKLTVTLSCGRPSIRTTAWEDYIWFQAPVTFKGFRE
UniProt Q15691: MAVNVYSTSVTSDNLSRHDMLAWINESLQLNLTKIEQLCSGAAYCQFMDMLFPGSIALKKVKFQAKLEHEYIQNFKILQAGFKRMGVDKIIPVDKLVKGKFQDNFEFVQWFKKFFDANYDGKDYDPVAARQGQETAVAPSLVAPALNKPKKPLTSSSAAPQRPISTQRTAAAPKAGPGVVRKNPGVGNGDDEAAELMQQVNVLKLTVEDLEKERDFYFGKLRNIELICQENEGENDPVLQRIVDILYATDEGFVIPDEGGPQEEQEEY
UniProt P62310: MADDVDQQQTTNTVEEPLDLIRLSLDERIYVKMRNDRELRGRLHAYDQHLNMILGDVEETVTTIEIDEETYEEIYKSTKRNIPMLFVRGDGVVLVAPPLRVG
UniProt Q9UK45: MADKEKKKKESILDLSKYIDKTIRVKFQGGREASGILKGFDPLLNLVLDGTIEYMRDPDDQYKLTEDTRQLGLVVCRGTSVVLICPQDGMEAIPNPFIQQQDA
UniProt Q9HD34: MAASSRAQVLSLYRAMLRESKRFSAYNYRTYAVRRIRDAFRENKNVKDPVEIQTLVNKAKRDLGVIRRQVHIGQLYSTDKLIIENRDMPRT
UniProt O00462: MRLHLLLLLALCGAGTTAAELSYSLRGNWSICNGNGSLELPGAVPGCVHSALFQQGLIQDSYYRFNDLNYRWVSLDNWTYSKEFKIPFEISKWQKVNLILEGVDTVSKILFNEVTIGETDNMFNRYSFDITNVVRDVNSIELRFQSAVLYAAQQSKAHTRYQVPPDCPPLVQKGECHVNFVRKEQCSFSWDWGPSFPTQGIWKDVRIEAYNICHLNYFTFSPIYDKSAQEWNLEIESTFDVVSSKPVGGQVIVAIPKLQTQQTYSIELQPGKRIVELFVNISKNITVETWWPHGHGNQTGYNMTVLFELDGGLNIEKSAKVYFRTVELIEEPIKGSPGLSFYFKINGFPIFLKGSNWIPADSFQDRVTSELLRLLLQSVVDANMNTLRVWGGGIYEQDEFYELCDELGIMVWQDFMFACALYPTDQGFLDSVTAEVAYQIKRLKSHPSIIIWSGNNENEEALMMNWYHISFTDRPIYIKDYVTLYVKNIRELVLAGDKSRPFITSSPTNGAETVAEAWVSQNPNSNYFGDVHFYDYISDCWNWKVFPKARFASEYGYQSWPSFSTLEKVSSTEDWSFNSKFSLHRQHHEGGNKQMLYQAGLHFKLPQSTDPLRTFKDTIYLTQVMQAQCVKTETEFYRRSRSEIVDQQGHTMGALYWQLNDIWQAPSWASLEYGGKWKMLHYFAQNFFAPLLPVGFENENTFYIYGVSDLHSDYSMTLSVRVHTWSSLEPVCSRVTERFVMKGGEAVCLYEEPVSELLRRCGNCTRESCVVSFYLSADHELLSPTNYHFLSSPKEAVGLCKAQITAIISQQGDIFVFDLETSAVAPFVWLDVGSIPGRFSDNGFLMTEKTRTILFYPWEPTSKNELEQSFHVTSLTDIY
UniProt Q3KQU3: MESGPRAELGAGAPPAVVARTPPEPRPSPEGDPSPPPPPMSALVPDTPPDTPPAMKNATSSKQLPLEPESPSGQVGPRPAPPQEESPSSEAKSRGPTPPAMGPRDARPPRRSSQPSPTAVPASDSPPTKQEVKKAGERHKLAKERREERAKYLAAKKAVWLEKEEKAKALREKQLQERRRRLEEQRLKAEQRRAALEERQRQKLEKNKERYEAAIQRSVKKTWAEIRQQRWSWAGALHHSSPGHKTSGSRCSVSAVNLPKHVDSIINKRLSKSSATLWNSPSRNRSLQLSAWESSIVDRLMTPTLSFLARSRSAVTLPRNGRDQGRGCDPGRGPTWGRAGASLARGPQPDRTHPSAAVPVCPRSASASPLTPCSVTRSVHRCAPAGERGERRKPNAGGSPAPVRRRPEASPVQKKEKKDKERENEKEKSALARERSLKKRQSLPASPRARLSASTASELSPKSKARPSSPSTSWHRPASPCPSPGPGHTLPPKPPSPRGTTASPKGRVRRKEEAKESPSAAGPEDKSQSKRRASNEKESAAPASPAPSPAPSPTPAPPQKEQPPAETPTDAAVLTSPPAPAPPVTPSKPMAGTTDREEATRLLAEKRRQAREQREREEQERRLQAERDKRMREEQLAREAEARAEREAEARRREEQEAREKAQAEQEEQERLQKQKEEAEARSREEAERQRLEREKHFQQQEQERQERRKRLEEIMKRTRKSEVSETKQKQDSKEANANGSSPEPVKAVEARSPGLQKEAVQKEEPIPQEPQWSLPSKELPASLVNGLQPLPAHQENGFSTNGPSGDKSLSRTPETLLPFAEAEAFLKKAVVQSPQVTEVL
UniProt Q7L5Y9: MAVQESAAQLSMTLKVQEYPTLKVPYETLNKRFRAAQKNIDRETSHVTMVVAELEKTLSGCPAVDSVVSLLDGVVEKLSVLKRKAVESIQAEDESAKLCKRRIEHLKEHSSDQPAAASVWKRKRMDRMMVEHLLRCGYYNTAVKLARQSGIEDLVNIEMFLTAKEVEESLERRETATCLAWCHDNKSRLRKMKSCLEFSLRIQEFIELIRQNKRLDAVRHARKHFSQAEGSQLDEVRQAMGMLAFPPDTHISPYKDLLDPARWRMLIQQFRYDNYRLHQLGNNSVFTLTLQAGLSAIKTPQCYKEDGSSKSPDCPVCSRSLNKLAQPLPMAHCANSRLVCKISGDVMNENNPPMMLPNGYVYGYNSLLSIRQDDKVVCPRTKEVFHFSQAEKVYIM
UniProt Q8IWT6: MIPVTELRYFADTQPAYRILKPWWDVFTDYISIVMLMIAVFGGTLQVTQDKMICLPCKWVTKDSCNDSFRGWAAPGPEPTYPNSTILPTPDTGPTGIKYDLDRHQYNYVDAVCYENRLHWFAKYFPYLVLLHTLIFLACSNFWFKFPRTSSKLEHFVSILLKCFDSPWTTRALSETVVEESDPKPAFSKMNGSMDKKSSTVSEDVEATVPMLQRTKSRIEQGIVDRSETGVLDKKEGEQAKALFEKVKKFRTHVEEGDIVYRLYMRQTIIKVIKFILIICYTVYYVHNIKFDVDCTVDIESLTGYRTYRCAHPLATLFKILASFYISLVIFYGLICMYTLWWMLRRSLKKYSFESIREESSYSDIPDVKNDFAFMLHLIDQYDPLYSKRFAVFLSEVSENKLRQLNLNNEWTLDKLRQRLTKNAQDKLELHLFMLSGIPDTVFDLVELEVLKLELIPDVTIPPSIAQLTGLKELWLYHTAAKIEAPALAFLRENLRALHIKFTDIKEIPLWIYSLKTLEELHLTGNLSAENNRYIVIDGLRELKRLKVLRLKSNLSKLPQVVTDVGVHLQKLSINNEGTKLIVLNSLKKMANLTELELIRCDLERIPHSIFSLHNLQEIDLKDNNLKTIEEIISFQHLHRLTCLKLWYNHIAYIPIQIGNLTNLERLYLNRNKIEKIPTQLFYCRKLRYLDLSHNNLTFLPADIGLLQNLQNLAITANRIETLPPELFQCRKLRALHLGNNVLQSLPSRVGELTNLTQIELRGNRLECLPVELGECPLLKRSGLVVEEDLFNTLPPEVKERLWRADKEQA
UniProt Q9H0U3: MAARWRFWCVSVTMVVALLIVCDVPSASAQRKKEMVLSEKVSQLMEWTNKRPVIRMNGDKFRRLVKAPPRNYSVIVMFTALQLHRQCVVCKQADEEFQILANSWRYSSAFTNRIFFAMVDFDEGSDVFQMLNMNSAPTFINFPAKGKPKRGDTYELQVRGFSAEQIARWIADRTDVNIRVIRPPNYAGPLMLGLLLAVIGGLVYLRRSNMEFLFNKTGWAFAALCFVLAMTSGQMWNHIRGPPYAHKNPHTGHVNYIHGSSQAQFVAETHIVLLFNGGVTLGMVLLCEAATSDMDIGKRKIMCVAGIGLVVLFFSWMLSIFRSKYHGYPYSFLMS
UniProt P20645: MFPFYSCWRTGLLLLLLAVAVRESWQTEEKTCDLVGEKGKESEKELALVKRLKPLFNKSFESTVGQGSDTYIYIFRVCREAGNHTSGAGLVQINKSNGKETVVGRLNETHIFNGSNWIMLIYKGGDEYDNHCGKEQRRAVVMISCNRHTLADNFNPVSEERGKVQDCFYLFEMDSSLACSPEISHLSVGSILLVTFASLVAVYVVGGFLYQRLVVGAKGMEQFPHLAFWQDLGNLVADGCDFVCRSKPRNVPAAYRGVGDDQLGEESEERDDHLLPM
UniProt P62312: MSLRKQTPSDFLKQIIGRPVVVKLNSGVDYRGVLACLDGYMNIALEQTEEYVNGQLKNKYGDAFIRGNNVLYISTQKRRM
UniProt Q9Y333: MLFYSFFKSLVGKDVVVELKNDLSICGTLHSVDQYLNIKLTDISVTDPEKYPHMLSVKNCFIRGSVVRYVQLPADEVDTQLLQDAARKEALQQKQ

Some of the results follow.

Compound in one assay: CC(C)(C)Cn1c(N)nc2ccc(-c3[nH]c(C(C)(C)C)nc3-c3ccc(F)cc3)nc21 [ralimetinib]
In words: log2 fold change, soluble protein after heating vs DMSO (PISA); higher = thermal stabilisation; K562 cells, 10 uM, 30 min; active = over 0.2 and 3.5 SD of the protein, either way, in both replicates (recomputed). The gist of the method:
(§1)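 Soluble protein was defined as the supernatant after 21,000xg for 90 min. It came from K562 cells at 2×10^6 cells/mL given 10 μM compound for 30 min, heated in aliquots for 3 min across 48°C-58°C, pooled, and extracted in PBS with 0.5% NP-40 at 4°C, and was quantified by TMTpro 16plex LC-MS/MS with equalised channel sums. Thermal stability against control samples, from duplicates, is reported as log2 fold change.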
Regarding MALSU1 (UniProt Q96EH3), the log2 fold change is inactive: -0.001.

In the case of MANF (UniProt P55145), the log2 fold change was inactive: -0.063.

Consider MARCHF5 (UniProt Q9NX47), for which the log2 fold change is inactive: -0.045.

For MAP7 isoform 7 (UniProt Q14244), the log2 fold change was inactive: 0.088.

MAN1B1 (UniProt Q9UKM7): the log2 fold change was inactive: -0.014.

Regarding MAD2L1BP isoform 3 (UniProt Q15013), the log2 fold change was inactive: -0.02.

Take MAPRE1 (UniProt Q15691): the log2 fold change is inactive: -0.023.

For the target LSM3 (UniProt P62310), the log2 fold change is inactive: 0.023.

Consider LYAR (UniProt Q9NX58), for which the log2 fold change was inactive: 0.185.

On to LSM7 (UniProt Q9UK45), for which the log2 fold change is inactive: -0.113.

Compound in a further assay: CC(C)(O)CC(=O)NCCn1ccc2ncnc(Nc3ccc(Oc4cccc(C(F)(F)F)c4)c(Cl)c3)c21
The description is as above. The gist of the method: as §1
On to LYRM4 (UniProt Q9HD34), for which the log2 fold change is inactive: -0.091.

Regarding MAGEB2 (UniProt O15479), the log2 fold change is inactive: 0.195.

Consider MAP1A isoform 2 (UniProt P78559), for which the log2 fold change is inactive: 0.019.

For MANBA (UniProt O00462), the log2 fold change was inactive: 0.013.

As to MAP7D1 (UniProt Q3KQU3), the log2 fold change is inactive: 0.028.

With MAEA (UniProt Q7L5Y9), the log2 fold change is inactive: -0.004.

Turning to MARCHF6 (UniProt O60337), the log2 fold change is inactive: 0.044.

For the target LRRC8A (UniProt Q8IWT6), the log2 fold change was inactive: 0.01.

On to MAGT1 (UniProt Q9H0U3), for which the log2 fold change is inactive: 0.026.

With M6PR (UniProt P20645), the log2 fold change is inactive: -0.031.

LSM6 (UniProt P62312): the log2 fold change is inactive: 0.02.

Regarding LSM2 (UniProt Q9Y333), the log2 fold change was inactive: 0.003.

Consider MACF1 (UniProt H3BQK9), for which the log2 fold change was inactive: -0.073.
